The target in this assay is STAT3 (immunoprecipitated from HeLa cell mitochondria) (human (endogenous in HeLa)) (UniProt P40763). The assay can be described thus: affinity purification with mass spectrometry; STAT3 immunoprecipitates prepared from HeLa cell mitochondria; mass spectrometry of the binding partners.

The chains behind the UniProt entries cited, without tags or fusion partners.
UniProt P40763: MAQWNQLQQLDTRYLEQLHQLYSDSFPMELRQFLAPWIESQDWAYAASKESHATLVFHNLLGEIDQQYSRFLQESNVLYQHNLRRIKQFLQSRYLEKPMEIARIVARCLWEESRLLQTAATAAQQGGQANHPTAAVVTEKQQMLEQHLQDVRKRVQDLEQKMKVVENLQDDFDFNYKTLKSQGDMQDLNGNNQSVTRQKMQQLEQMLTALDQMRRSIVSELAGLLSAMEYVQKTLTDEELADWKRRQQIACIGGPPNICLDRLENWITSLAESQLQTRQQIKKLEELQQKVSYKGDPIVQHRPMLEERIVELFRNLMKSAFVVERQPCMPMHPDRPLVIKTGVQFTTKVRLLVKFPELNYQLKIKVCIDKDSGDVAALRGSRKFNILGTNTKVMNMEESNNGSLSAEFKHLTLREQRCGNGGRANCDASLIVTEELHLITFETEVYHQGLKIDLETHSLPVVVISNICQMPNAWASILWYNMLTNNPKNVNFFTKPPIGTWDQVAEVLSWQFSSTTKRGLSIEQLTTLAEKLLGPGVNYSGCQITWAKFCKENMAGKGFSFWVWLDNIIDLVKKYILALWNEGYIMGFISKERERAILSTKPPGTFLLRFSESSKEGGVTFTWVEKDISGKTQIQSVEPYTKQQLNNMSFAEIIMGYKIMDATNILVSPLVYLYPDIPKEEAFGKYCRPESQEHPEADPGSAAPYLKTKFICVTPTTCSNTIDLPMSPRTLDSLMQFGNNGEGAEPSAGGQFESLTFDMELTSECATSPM
UniProt P99999: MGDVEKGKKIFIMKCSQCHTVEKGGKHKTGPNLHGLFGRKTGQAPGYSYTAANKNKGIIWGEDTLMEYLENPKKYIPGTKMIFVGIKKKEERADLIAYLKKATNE
UniProt Q9P0J0: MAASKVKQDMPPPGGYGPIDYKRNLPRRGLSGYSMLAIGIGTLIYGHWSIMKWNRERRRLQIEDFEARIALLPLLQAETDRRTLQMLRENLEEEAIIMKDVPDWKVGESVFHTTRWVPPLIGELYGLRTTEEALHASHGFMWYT

No constants are given. Whether binding was seen depends on the method and setting. In cells and extracts the contact can be indirect. A yes stands for co-enrichment or nearness to the bait. Other partners may have been found. A no says only that the protein was not detected with the bait.

In the case of “cytochrome C (from UniProt P99999 1-105)”, the binding result is recorded as “binds”.
In the case of GRIM-19 (from UniProt Q9P0J0 1-144) it was “no binding”.

The values are drawn from publication PMC5177931.
